Our source for the binding values is US20100189713A1 (Biogen, published 2010).

By UniProt entry, the sequences of proteins in these tests, tags left out. Residues count along the entry.
UniProt P70207, residues 35-1894: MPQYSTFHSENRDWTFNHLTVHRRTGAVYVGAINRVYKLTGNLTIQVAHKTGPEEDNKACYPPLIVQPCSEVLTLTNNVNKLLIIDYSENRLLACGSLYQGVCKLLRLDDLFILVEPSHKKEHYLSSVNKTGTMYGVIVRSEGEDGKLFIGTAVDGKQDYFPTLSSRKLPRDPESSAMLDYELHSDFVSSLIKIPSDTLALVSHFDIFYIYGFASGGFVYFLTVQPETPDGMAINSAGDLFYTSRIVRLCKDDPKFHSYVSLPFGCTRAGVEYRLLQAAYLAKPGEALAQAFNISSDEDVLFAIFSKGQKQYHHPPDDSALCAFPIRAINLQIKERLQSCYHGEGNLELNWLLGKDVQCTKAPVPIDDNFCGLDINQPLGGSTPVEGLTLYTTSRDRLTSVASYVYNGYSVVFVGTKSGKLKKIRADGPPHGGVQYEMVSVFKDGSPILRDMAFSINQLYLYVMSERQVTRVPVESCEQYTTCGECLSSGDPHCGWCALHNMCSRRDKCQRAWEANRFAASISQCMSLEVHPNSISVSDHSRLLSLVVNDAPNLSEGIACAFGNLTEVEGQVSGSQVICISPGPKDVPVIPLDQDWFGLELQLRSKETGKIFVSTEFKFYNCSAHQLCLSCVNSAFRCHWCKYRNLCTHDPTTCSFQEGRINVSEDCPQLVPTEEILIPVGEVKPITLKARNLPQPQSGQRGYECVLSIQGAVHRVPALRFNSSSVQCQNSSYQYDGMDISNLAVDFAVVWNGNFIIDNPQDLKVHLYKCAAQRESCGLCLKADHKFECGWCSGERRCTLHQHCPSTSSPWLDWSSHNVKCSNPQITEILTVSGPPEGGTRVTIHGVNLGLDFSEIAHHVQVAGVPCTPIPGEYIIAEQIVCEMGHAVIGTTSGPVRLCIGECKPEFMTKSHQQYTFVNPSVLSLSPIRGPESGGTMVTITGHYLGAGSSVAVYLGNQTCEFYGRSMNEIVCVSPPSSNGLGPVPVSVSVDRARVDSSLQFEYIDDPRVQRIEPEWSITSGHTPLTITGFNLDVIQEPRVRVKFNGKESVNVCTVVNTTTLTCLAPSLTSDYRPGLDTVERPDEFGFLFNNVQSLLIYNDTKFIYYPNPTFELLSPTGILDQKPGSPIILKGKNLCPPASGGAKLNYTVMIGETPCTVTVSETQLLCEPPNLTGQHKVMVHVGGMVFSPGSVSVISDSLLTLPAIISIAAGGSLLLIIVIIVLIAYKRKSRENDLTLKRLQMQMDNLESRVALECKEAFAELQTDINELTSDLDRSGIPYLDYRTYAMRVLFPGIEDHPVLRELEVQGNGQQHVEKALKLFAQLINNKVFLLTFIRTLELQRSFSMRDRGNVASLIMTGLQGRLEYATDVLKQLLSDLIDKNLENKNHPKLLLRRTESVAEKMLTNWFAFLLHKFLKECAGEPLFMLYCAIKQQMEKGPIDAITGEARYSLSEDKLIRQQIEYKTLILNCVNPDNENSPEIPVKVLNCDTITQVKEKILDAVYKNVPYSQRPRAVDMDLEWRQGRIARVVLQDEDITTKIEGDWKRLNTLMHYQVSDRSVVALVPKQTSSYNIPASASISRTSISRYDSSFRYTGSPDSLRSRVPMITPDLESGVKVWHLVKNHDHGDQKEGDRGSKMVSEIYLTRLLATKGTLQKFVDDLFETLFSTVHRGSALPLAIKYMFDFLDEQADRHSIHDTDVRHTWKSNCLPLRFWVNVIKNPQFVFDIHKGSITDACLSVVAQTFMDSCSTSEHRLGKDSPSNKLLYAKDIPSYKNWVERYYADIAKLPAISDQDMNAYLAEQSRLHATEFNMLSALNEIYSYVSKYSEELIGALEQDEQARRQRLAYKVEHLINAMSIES

This experiment addresses wild-type plexin-A2 expressed in COS7 cells (mouse) (UniProt P70207). Put plainly: AP-fusion binding assay on transfected COS7 cells.

These are yes or no findings as the source states them, for the method shown. Some binding calls cover weakened binding; strength is not graded here.

B1: Sema6A-AP (ligand, UniProt O35464 19-649, looked up)
chain: GFPEDSEPISISHGNYTKQYPVFVGHKPGRNTTQRHRLDIQMIMIMNRTLYVAARDHIYTVDIDTSHTEEIYCSKKLTWKSRQADVDTCRMKGKHKDECHNFIKVLLKKNDDTLFVCGTNAFNPSCRNYRVDTLETFGDEFSGMARCPYDAKHANIALFADGKLYSATVTDFLAIDAVIYRSLGDSPTLRTVKHDSKWLKEPYFVQAVDYGDYIYFFFREIAVEYNTMGKVVFPRVAQVCKNDMGGSQRVLEKQWTSFLKARLNCSVPGDSHFYFNILQAVTDVIRINGRDVVLATFSTPYNSIPGSAVCAYDMLDIANVFTGRFKEQKSPDSTWTPVPDERVPKPRPGCCAGSSSLEKYATSNEFPDDTLNFIKTHPLMDEAVPSIINRPWFLRTMVRYRLTKIAVDNAAGPYQNHTVVFLGSEKGIILKFLARIGSSGFLNGSLFLEEMNVYNPEKCSYDGVEDKRIMGMQLDRASGSLYVAFSTCVIKVPLGRCERHGKCKKTCIASRDPYCGWVRESGSCAHLSPLSRLTFEQDIERGNTDGLGDCHNSFVALNGHASSLYPSTTTSDSASRDGYESRGGMLDWNDLLEAPGSTDPLGAVSSHNHQDKKGVIRESYLKSNDQLVPVT
notes: Printed only as 'Sema6A-AP'; Order of the pieces follows the printed label only; not shown: alkaline phosphatase (AP) tag
B1: the binding result was “binds”.
